Measurements published in paper PMC9156709.
No constants are given. Whether binding was seen depends on the method and setting. Some results given as binding are weak or reduced against the parent protein; the word gives no strength. Sequences can lack the tags named with a protein.

Protein sequences, listed by entry. Tags and fused reporters are not part of them. Lines headed by an entry give the natural chain unless they say otherwise; changes in a name come on top.
UniProt P54646: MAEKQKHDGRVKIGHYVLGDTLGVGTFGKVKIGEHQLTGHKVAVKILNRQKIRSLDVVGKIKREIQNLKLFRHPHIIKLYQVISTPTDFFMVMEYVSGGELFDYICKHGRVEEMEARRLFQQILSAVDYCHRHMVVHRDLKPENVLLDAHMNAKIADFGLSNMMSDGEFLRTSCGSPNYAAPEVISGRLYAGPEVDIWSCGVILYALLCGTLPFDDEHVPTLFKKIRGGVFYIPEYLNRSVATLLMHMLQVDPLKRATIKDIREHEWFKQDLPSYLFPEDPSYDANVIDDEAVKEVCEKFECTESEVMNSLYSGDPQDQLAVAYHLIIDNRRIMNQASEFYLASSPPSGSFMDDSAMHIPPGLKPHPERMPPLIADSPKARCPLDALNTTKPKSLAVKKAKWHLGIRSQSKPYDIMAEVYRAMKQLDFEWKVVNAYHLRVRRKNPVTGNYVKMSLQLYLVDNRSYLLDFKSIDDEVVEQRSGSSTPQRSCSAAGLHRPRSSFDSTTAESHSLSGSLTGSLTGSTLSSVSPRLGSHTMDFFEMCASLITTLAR

Molecular target: T1, Flag-HA tagged PFKP (human) (UniProt Q01813)
T1 sequence: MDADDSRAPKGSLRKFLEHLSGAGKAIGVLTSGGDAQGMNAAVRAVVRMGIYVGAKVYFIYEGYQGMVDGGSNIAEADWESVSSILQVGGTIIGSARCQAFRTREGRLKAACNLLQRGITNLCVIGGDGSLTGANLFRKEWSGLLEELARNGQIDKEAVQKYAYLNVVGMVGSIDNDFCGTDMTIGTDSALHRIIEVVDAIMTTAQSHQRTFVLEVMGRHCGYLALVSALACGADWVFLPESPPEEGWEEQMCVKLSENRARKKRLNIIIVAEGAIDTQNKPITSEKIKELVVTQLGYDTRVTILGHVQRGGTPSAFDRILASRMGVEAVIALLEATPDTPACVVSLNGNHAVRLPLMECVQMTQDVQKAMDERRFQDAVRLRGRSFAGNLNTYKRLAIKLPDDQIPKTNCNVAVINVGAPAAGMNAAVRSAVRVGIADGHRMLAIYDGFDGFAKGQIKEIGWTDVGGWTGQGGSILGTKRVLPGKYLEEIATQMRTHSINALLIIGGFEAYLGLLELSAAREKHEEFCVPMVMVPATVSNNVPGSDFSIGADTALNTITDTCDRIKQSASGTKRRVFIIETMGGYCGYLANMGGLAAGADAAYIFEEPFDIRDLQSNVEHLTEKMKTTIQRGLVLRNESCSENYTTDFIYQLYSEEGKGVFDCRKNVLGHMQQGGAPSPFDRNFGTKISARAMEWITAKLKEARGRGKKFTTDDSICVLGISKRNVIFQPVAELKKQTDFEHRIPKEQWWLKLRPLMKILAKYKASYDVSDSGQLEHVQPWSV
Test: pull-down; in vitro protein-protein interaction assay: Flag-HA tagged PFKP or domains purified by Flag IP and held on FLAG M2 beads, incubated with 50 ng tagged AMPK complex in 1 mL lysis buffer (20 mM Tris pH 7.4, 150 mM NaCl, 1 mM EDTA, 1 mM EGTA, 1% Triton X-100) for 1 h at room temperature, washed thrice, western blot; both purified

Substance: GST-His tagged AMPKα2/β2/γ3 (from UniProt P54646 1-552; O43741 1-272; Q9UGI9 1-489) (complex)
- binding: binds
